The source of these data is patent US20240327522A1 (Genentech, published 2024).

In assay [1] the target is recombinant human αvβ8 protein (PARS-17102) (human). Nature of the assay: SPR.
For assay [2] the target is unchanged. Put plainly: SPR, Biacore T200, Protein A capture.

Results are given in words; binding and its absence hold for the method and conditions named. Binding can be weak; no strength is given.

B1: Hu.aVb8-92.H13L1 (aVb8-92.H13L1.hIgG1.LALAPG) (antibody, V domains shown)
VH: EQQLLESGGGLVQPGGSLRLSCAASGFSLSSYAMGWVRQAPGKGLEWIGVIRKDDNTYYGNWAKGRFTISRDSSKNTLYLQMNSLRAEDTAVYFCARALNTYVGFPYFNIWGPGTLVTVSS
VL: DAVLTQSPDSLAVSLGERATINCQSIKSVGDNKWLAWYQQKPGQPPKLLIYDASDLASGVPDRFSGSGSRTDFTLTISSLQAEDVAVYYCAGSVSSGDSGFGGGTKVEIKR
notes: Human IgG1 LALAPG; also called PARS-20463-65 (IH) aVb8-92.H13L1.hIgG1.LALAPG; humanized αvβ8-92
With B1, in assay [1], the binding result was “binds”.

B2: Rb.aVb8-65 (antibody, V domains shown)
VH: QSVEESGGRLVTPGTPLTLTCTVSGIDLSNYAMIWVRQAPGKGLEWIGIISSSDRIWYASWVKGRFTISKTSSTTVDLQMTSLTTEDTATYFCSRSVSNSYFDGWNLWGPGTLVTVSS
VL: DIVMTQTPASVEAAVGGTVTIKCQASENINSLLAWYQQKPGQPPKLLIYRASTLASGVPSRFRGSGSGTQFTLTISDLECDDAATYYCQSNYGFTGSGAFFYGFGGGTEVVVE
notes: Recombinant rabbit monoclonal antibody expressed in Expi293 cells; also called rb.αvβ8-65; rabbit αvβ8-65
In the case of B2, the binding entry in assay [1] is given as “binds”.

B3: Hu.aVb8-65.H15L2 (aVb8-65.H15L2.hIgG1.LALAPG) (antibody, V domains shown)
VH: EVQLLESGGGLVQPGGSLRLSCAASGIDLSNYAMIWVRQAPGKGLEWVGIISSSDRIWYASWVKGRFTISRDNSKNTLYLQMNSLRAEDTAVYYCSRSVSNSYFDGWNLWGQGTLVTVSS
VL: DIQMTQSPSSVSASVGDRVTITCQASENINSLLAWYQQKPGKAPKLLIYRASTLASGVPSRFSGSGSGTDFTLTISSLQPEDFATYYCQSNYGFTGSGAFFYGFGQGTKVEIKR
notes: Human IgG1 LALAPG; also called PARS-20475-65 (IH) aVb8-65.H15L2.hIgG1.LALAPG; humanized αvβ8-65
B3: the binding result in assay [2] and in assay [1] was “binds” in each case.
